# The other results are listed elsewhere or left out.
# By UniProt entry, the sequences of proteins in these tests, tags left out. Where a name states a change or a piece, a line headed by the entry shows the natural chain unless it says otherwise.
# UniProt Q7Z3E2: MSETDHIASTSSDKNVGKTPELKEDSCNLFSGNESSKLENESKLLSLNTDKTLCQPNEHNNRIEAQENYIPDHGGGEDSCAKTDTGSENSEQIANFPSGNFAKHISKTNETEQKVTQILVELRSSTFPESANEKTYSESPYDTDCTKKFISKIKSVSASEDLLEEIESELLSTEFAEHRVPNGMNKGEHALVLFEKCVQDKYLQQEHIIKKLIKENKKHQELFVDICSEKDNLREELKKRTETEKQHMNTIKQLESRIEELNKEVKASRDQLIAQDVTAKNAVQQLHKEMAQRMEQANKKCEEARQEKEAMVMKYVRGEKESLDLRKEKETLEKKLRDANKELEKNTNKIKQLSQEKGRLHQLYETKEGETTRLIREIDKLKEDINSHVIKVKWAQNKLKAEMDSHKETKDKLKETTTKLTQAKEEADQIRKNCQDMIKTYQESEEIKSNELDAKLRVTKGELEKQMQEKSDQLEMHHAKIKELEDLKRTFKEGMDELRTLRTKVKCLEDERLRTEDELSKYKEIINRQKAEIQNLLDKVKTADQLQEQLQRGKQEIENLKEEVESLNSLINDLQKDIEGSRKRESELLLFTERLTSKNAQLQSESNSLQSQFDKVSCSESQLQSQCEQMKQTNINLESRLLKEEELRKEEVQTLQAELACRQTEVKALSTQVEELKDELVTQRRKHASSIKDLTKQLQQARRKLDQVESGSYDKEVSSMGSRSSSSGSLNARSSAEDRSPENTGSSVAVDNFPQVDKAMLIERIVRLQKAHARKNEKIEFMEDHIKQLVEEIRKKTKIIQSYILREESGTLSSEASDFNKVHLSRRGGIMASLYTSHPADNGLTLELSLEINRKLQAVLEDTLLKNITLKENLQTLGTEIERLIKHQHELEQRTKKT
# UniProt O60563, whole entry, looked up: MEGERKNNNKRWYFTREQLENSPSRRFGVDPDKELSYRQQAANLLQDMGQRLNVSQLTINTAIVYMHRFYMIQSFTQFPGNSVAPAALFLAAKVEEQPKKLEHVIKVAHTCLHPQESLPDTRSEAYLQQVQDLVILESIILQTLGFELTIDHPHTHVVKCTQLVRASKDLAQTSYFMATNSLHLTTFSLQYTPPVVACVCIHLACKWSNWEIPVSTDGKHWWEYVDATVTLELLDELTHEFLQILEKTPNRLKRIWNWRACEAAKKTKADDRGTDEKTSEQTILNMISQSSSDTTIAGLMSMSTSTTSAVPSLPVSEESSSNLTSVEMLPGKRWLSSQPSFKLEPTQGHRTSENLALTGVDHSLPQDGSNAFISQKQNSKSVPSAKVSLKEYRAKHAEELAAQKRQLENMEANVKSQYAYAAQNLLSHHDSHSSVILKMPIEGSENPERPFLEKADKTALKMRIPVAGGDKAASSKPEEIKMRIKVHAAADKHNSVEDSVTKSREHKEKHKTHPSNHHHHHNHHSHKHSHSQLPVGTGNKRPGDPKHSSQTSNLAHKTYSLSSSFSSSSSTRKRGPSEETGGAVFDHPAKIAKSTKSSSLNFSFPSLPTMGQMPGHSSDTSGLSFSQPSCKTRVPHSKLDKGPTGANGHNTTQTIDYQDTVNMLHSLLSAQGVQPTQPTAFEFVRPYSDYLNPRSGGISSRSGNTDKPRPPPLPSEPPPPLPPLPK
# UniProt Q9Y2V2: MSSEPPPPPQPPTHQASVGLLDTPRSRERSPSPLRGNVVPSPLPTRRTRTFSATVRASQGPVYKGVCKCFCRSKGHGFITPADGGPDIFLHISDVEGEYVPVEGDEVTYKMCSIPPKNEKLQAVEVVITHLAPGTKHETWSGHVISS
# UniProt Q96A33: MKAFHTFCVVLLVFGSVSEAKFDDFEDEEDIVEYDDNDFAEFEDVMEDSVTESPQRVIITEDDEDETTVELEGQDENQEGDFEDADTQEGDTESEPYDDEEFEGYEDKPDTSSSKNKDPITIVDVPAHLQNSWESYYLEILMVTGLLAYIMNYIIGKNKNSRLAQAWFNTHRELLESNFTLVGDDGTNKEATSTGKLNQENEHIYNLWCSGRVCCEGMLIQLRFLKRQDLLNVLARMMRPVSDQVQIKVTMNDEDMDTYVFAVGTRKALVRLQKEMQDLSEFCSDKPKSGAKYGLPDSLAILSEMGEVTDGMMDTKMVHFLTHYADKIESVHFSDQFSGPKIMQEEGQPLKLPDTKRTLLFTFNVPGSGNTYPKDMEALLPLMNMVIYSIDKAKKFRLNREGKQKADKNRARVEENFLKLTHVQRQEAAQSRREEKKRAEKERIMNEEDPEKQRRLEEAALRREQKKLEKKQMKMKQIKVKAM
# UniProt Q9H257: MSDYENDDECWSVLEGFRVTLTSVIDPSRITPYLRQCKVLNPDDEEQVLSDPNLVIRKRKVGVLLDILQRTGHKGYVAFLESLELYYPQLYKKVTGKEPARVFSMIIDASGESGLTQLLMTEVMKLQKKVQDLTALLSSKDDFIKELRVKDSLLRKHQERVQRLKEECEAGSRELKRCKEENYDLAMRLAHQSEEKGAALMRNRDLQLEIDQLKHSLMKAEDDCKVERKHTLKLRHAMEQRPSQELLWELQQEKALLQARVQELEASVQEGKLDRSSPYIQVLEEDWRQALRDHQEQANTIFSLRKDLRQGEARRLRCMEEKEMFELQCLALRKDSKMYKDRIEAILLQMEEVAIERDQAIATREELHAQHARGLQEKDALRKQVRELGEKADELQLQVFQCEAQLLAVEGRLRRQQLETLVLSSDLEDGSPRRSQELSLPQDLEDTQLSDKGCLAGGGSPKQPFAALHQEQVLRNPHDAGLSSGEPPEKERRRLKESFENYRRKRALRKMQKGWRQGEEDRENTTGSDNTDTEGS
# UniProt Q6NZI2: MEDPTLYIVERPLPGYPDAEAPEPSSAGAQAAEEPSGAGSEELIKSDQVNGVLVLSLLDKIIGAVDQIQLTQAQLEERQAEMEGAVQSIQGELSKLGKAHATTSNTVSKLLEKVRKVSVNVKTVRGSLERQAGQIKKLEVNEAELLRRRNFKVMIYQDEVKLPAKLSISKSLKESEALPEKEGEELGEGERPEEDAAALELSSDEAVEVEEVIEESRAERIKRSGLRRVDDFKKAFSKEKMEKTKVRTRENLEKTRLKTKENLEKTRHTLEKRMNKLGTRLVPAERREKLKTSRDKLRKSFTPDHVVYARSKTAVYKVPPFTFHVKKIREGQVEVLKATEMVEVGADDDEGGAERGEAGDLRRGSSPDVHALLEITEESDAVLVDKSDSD
# UniProt Q9BV29: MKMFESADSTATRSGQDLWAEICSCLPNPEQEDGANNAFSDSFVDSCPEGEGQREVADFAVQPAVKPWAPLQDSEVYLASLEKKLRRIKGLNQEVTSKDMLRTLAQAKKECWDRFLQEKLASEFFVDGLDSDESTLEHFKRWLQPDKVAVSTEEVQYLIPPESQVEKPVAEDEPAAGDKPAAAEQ
# UniProt Q6PK04: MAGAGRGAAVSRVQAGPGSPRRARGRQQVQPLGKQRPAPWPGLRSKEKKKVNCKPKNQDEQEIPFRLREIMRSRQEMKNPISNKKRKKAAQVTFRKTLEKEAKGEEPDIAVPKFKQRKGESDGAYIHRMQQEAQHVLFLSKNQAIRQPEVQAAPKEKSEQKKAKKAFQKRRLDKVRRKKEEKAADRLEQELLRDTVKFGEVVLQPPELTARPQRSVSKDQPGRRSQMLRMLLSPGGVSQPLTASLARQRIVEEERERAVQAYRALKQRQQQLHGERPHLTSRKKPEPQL
# Key:
# Assay in all cases: log2 fold change, soluble protein after heating vs DMSO (PISA); higher = thermal stabilisation; K562 lysate, 10 uM; active = over 0.2 and 3.5 SD of the protein, either way, in both replicates (recomputed)
# [1] = compound: C#Cc1cccc(Nc2ncnc3cc(OCCOC)c(OCCOC)cc23)c1 [erlotinib]
# In short: (§1)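 Log-two fold change in thermal stability relative to solvent controls is reported from duplicates. For each sample, crude K562 extract from dounce-homogenised pellets in PBS pH 7.4 with 1 mM MgCl2, at 1 mg/mL protein, was treated with 10 μM compound for 30 min. Aliquots heated for 3 min across 48°C-58°C were pooled, brought to 0.5% NP-40 at 4°C and cleared at 21,000xg for 90 min. The supernatant was quantified by TMTpro 16plex LC-MS/MS with channel sums equalised.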
# [2] = compound: C/C(=N\NC(=O)C1=CC(=CC=C1)S(=O)(=O)N2CCOCC2)/C3=C(C=CC(=C3)Cl)O
# In short: as §1
# [3] = compound: C1=CC(=CC=C1C2=NC3=C(N2)C=C(C=C3)C(=O)N)OC4=CC=C(C=C4)Cl
# In short: as §1
# [4] = compound: C1=CC2=C(C=CC(=C2)/C=C\3/C(=O)NC(=NCC4=CC=CS4)S3)N=C1
# In short: as §1
# [5] = compound: C1=CC2=NC=CN=C2C=C1/C=C/3\C(=O)NC(=O)S3
# In short: as §1
# [6] = compound: C1=CC=C(C=C1)C2=NC(=C(N2)C3=CC=NC=C3)C4=CC(=C(C=C4)Cl)O
# In short: as §1
# [7] = compound: C1=CC=C2C(=C1)C3=NNC4=CC=CC(=C43)C2=O
# In short: as §1
# [8] = compound: C1CCN(C1)C(=O)NC2=CC=CC(=C2)NC3=NC=C(C(=N3)NCCC4=CN=CN4)Br
# In short: as §1
# [9] = compound: C1CN(CCC1(CC2=CC=C(C=C2)Cl)N)C3=NC=NC4=C3C=CN4
# In short: as §1
# [10] = compound: C1COCCN1CCN2C3=CC=CC=C3N=C2NC(=O)C4=CC(=CC=C4)[N+](=O)[O-] [IRAK-1-4 Inhibitor I]
# In short: as §1
# [11] = compound: C=CC(=O)N1CCC[C@@H](n2nc(-c3ccc(Oc4ccccc4)cc3)c3c(N)ncnc32)C1 [ibrutinib]
# In short: as §1
# [12] = compound: CC(=O)c1cnc2ccc(-c3cc(Cl)c(O)c(Cl)c3)nc2c1N[C@H]1CC[C@H](CN(C)C)CC1
# In short: as §1
# [13] = compound: CC(C)(C)Cn1c(N)nc2ccc(-c3[nH]c(C(C)(C)C)nc3-c3ccc(F)cc3)nc21 [ralimetinib]
# In short: as §1
# [14] = compound: CC(C)(O)CC(=O)NCCn1ccc2ncnc(Nc3ccc(Oc4cccc(C(F)(F)F)c4)c(Cl)c3)c21
# In short: as §1
# [15] = compound: CC(C)C1=C2N=C(C=C(N2N=C1)NCC3=CC=CC=C3)NCCCCCCN
# In short: as §1
# [16] = compound: CC1=C(C(CC(=O)N1)C2=CC=C(C=C2)C(F)(F)F)C(=O)NC3=C(C=C4C(=C3)C=NN4)F
# In short: as §1
# [17] = compound: CC1=C(C2=C(C=C1)C(=O)C3=CC=CC=C3N2CCCN)C
# In short: as §1
# [18] = compound: CC1=C(C=C(C=C1)NC(=O)C2=CC(=CC=C2)C(C)(C)C#N)NC3=CC4=C(C=C3)N=CN(C4=O)C
# In short: as §1
# [19] = compound: CC1=C(C=C(C=C1)NC(=O)C2=CC(=CC=C2)N(C)C)NC(=O)C3=CC=C(C=C3)O
# In short: as §1
# [20] = compound: CC1=CC=C(C=C1)SC2=C3C=C(SC3=CN=C2)C(=O)N
# In short: as §1
Target,log2 fold change [1],log2 fold change [2],log2 fold change [3],log2 fold change [4],log2 fold change [5],log2 fold change [6],log2 fold change [7],log2 fold change [8],log2 fold change [9],log2 fold change [10],log2 fold change [11],log2 fold change [12],log2 fold change [13],log2 fold change [14],log2 fold change [15],log2 fold change [16],log2 fold change [17],log2 fold change [18],log2 fold change [19],log2 fold change [20]
CCDC186 (UniProt Q7Z3E2),inactive: -0.018,inactive: 0.026,inactive: 0.01,inactive: 0.007,inactive: -0.03,inactive: -0.009,inactive: -0.027,inactive: -0.039,inactive: 0.007,inactive: 0.016,inactive: 0.024,inactive: -0.025,inactive: -0.001,inactive: -0.056,inactive: -0.086,inactive: 0.006,inactive: 0.021,inactive: -0.016,inactive: 0,inactive: -0.023
CCNT1 (UniProt O60563),inactive: 0.001,inactive: 0.045,inactive: 0.073,inactive: 0.021,inactive: -0.006,inactive: 0.041,inactive: 0.009,inactive: 0.01,inactive: 0.03,inactive: -0.003,inactive: -0.011,inactive: -0.118,inactive: 0.03,inactive: -0.035,inactive: 0.09,inactive: 0.052,inactive: -0.017,inactive: 0.01,inactive: 0,inactive: 0.021
CARHSP1 (UniProt Q9Y2V2),inactive: 0.011,inactive: 0.022,inactive: -0.033,inactive: -0.06,inactive: 0.006,inactive: -0.026,inactive: 0.027,inactive: 0.01,inactive: 0.011,inactive: 0.024,inactive: 0.053,inactive: 0.021,inactive: -0.024,inactive: -0.032,inactive: 0.017,inactive: -0.029,inactive: 0.006,inactive: 0.014,inactive: 0.009,inactive: -0.008
CCDC47 (UniProt Q96A33),inactive: 0.02,inactive: 0.003,inactive: -0.071,inactive: 0.009,inactive: 0.022,inactive: -0.03,inactive: -0.093,inactive: -0.007,inactive: 0.024,inactive: 0.003,inactive: 0,inactive: 0.002,inactive: 0.01,inactive: -0.063,inactive: -0.042,inactive: 0.044,inactive: -0.002,inactive: 0.041,inactive: 0.045,inactive: -0.013
CARD9 (UniProt Q9H257),inactive: 0.035,inactive: -0.024,inactive: -0.029,inactive: -0.02,inactive: -0.024,inactive: -0.009,inactive: 0.033,inactive: 0.015,inactive: -0.003,inactive: 0.017,inactive: -0.034,inactive: 0.037,inactive: 0.014,inactive: -0.029,inactive: 0.019,inactive: -0.022,inactive: -0.027,inactive: -0.005,inactive: -0.008,inactive: -0.038
CAVIN1 (UniProt Q6NZI2),inactive: 0.003,inactive: -0.006,inactive: 0.02,inactive: 0.005,inactive: 0.021,inactive: 0.033,inactive: -0.01,inactive: -0.005,inactive: 0.002,inactive: -0.006,inactive: 0.027,inactive: -0.012,inactive: -0.014,inactive: -0.006,inactive: -0.017,inactive: -0.013,inactive: -0.024,inactive: 0.015,inactive: 0.047,inactive: 0
CCDC32 isoform 2 (UniProt Q9BV29),inactive: -0.021,inactive: 0.031,inactive: -0.027,inactive: 0,inactive: -0.014,inactive: -0.003,inactive: 0.007,inactive: 0.048,inactive: 0.049,inactive: 0.057,active: 0.276,inactive: 0.026,inactive: -0.005,inactive: 0,inactive: 0.047,inactive: -0.017,inactive: -0.03,inactive: 0.051,inactive: 0.028,inactive: 0.03
CCDC137 (UniProt Q6PK04),inactive: -0.056,inactive: -0.261,inactive: -0.041,inactive: 0.045,inactive: -0.039,inactive: -0.029,inactive: 0.018,inactive: 0,inactive: 0.011,inactive: 0.033,inactive: 0.126,inactive: -0.041,inactive: -0.025,inactive: 0.011,inactive: 0.067,inactive: 0.097,inactive: 0.014,inactive: -0.028,inactive: -0.066,inactive: 0.019

# From the supplement of paper PMC10849652
